Paper PMC7326919
Results are given in words; binding and its absence hold for the method and conditions named. Binding seen in cells or lysates may run through a third protein. A yes stands for co-enrichment or nearness to the bait. Other partners may have been found.

Amino acid sequences for entries named in this document (tags omitted). Residues count along the entry.
UniProt Q9R0P9: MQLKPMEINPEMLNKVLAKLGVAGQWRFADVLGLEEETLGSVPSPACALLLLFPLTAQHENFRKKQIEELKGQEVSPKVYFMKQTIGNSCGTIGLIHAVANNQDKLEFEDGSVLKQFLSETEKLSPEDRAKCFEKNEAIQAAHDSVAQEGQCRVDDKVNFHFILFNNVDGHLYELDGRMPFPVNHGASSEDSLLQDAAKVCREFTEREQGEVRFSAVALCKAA
UniProt P20029, residues 20-655: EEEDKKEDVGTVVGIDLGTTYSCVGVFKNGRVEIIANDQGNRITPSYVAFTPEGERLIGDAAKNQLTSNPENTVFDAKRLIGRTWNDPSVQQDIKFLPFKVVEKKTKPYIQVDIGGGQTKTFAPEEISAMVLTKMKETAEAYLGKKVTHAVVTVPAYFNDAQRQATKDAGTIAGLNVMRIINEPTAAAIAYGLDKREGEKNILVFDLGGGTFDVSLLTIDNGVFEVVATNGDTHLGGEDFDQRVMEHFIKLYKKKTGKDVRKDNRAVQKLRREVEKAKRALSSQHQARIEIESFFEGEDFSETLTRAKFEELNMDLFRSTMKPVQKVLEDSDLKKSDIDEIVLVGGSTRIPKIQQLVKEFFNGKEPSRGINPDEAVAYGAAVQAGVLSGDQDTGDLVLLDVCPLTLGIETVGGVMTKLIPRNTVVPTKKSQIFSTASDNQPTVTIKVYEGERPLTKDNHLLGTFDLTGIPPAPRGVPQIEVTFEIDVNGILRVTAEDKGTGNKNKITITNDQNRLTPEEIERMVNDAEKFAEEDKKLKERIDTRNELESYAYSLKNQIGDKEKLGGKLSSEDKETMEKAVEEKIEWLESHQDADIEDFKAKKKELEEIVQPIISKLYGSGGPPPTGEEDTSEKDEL

Biological target: Ubiquitin C-terminal hydrolase L1 (mouse (endogenous in cardiac fibroblasts of C57BL/6 mice)) (UniProt Q9R0P9)
Experiment: affinity purification with mass spectrometry; IP of endogenous UCHL1 from lysate of TGF-β1-induced CFs (Pierce Classic Magnetic IP/Co-IP Kit, protein A/G magnetic beads, 4 °C), eluate on SDS-PAGE, gel lanes to Orbitrap Elite mass spectrometry; candidates with number of PSMs > 20

binding: binds
Substance: glucose-regulated protein of 78 kDa (from UniProt P20029 20-655)
